# Source: PubChem BioAssay AID540276 (National Center for Advancing Translational Sciences (NCATS), 2011)
# About 5,400 (1.8%) of roughly 300,000 compounds were called active. Inconclusive results, whose numbers are uncertain, are shown with a selection of clear calls. Calls follow the shape of the full dose curve; tested in HEK293 cells. Potencies beside an inconclusive call are fits to weak or partial responses and may not hold up.
# Assay: qHTS for inhibitors of binding or entry into cells for Marburg Virus
# Settings: Marburg virus pseudotyped entry inhibition, cell reporter; activity change, negative = inhibition: at 37.8 µM (top of the series) unless noted
# % is scaled to controls: 0 for no effect and ±100 for the full control effect; potency is read from the fitted curve at half-maximal effect.
Compound,Potency,"activity change, negative = inhibition"
CCN1CCN(c2ccc(N3CCN(C(=O)c4ccc(Br)o4)CC3)nn2)CC1,"inconclusive: 7.08 µM [activator, partial curve, poor fit]",–
O=C(Nc1nccs1)c1ccc(COc2ccccc2Cl)o1,–,inactive: -6.49%
O=C(NNC(=O)OCc1ccccc1)OCc1ccccc1,"inconclusive: 35.5 µM [activator, single point]",–
COc1ccccc1Oc1ccc(N/C=C/C(=O)C(C)(C)C)cc1,–,inactive: 12.7% [at 46.1 µM]
Cc1cc2n(n1)SC(Nc1cc(Cl)ccc1Cl)N2 (stereo not given),–,inactive: 5.76%
CC(C)C(NC(=O)c1ccco1)C(=O)NCC(c1ccco1)N(C)C (stereo not given),"inconclusive: 6.51 µM [inhibitor, single point]",–
O=C(Nc1nc2ccccc2[nH]1)c1ccccc1[N+](=O)[O-],"inconclusive: 2.82 µM [activator, partial curve, poor fit]",–
NS(=O)(=O)c1cccc(NC(=O)Cn2nc(C(=O)O)c3ccccc3c2=O)c1,–,inactive: 2.34% [at 46.1 µM]
Cc1ccc(NC(=O)c2ccc(Cl)c(S(=O)(=O)N3CCCC3)c2)nc1,–,inactive: -18%
OCC1CN1C1CCCCC1 (stereo not given),–,inactive: 18%
O=C(Nc1cccc2ncccc12)c1ccccc1[N+](=O)[O-],–,inactive: 6.77% [at 46.1 µM]
O=C1c2ccccc2C(=O)C1c1nccc2ccccc12,active: 2.51 µM,–
COc1ccc(-c2ccc3c(N)c(C(=O)Nc4ccc(C)cc4C)sc3n2)cc1OC,"inconclusive: 11.2 µM [inhibitor, single point]",–
COCCN1C(=O)/C(=C/c2ccc(N3CCCC3)cc2)SC1=S,–,inactive: 14.4% [at 46.1 µM]
O=C(CN1CCCCCC1)Nc1ccc(S(=O)(=O)N2CCCCC2)cc1,"inconclusive: 35.5 µM [inhibitor, single point]",–
Cc1nn(C)c(C)c1N1C(=O)c2cccc3c(N)ccc(c23)C1=O,–,inactive: 6.28%
Cc1c(N=C2N=C(NC(=O)Nc3ccc(Cl)cc3)c3ccccc32)c(=O)n(-c2ccccc2)n1C,"inconclusive: 2.51 µM [inhibitor, full curve]",–
COc1ccc(NC(=O)C2CCCN(C(=O)Nc3ccc(F)cc3)C2)cc1OC (stereo not given),–,inactive: 6.25% [at 46.1 µM]
COc1cccc(CN2CCN(Cc3cc(OC)c(OC)cc3OC)CC2)c1,"inconclusive: 15.8 µM [inhibitor, single point]",–
CC(CC(=O)NC(C)c1ccc2c(c1)OCCO2)c1ccccc1 (stereo not given),"inconclusive: 35.5 µM [inhibitor, single point]",–
COc1cccc(OCC(=O)O/N=C(\N)c2ccc(OC)c(OC)c2)c1,–,inactive: 16.6%
O=C(N/N=C/C1=C(N2CCOCC2)C(=C\c2ccccc2)/CC1)Nc1ccccc1,"inconclusive: 1.12 µM [inhibitor, partial curve, poor fit]",–
Cc1cccc(C(=O)Nc2ccc(C(=O)/C=C/c3cccs3)cc2)c1,"inconclusive: 29.1 µM [inhibitor, single point]",–
Cc1ccc(C(=O)OCN2C(=O)c3ccccc3C2=O)cc1S(=O)(=O)N1CCOCC1,"inconclusive: 5.62 µM [activator, single point]",–

Compound,Potency,"activity change, negative = inhibition"
Cc1cccc(C)c1NC(=O)C[n+]1cc(-c2ccccc2)n2c1CCC2,–,inactive: 1.91%
CNc1nc(-c2ccccn2)nnc1-c1ccccc1,"inconclusive: 35.5 µM [inhibitor, single point]",–
CCn1cc(C(=O)NCCCN2CCC(C)CC2)c(=O)c2cc(S(=O)(=O)N(C)C3CCCCC3)ccc21,"inconclusive: 35.5 µM [inhibitor, single point]",–
C/C(=N/N=C1/NC(=O)CC(C(=O)O)S1)c1ccccc1 (stereo not given),"inconclusive: 4.47 µM [activator, single point]",–
Oc1ccccc1C=NCCCCCCN=Cc1ccccc1O,–,inactive: 19.1% [at 46.1 µM]
Cc1cccc(OCC(=O)Nc2ccccc2N2CCCCC2)c1C,"inconclusive: 15.8 µM [inhibitor, single point]",–
CC(C)(C)NCCC(O)c1cc(C(F)(F)F)nc2c(C(F)(F)F)cccc12 (stereo not given),"inconclusive: 17.8 µM [inhibitor, single point]",–
O=C(CCCC(=O)N1CCN(c2ccc([N+](=O)[O-])cc2)CC1)c1ccccc1,"inconclusive: 1.26 µM [activator, partial curve, poor fit]",–
Cn1c(=O)c2c(ncn2CC(O)CNc2ccc(Br)cc2)n(C)c1=O (stereo not given),"inconclusive: 35.5 µM [inhibitor, partial curve, poor fit]",–
O=C(O)c1cc(S(=O)(=O)N2CCCCC2)ccc1N1CCCCC1,–,inactive: 1.85%
CCN(CC)CCN1CCn2c3c(c4cc(C)ccc42)CCCC31 (stereo not given),"inconclusive: 20.6 µM [inhibitor, single point]",–
CN1C(=O)CSc2ccc(NC(=O)N3CCc4ccccc43)cc21,"inconclusive: 29.1 µM [inhibitor, single point]",–
O=C(COc1ccc(Cl)cc1)N1CCN(C/C=C/c2ccccc2)CC1,"inconclusive: 35.5 µM [inhibitor, single point]",–
CC(=O)C1=C(C)N(Cc2ccccc2)C(=O)N[C@@H]1CCc1ccccc1,"inconclusive: 1.19 µM [activator, single point]",–
Cc1cc(OCC(=O)Nc2cnn(CCCC(=O)O)c2)ccc1Cl,"inconclusive: 10 µM [inhibitor, partial curve, poor fit]",–
CC(=O)Nc1ccc(S(=O)(=O)Nc2ccc(F)c([N+](=O)[O-])c2)cc1,–,inactive: -3.74% [at 46.1 µM]
COc1ccc(S(=O)(=O)NC(CC(=O)NCC2CCCO2)c2ccco2)cc1 (stereo not given),"inconclusive: 12.6 µM [activator, single point]",–
CCn1c(SCC(=O)N2c3ccccc3CCc3ccccc32)nc2c1c(=O)n(C)c(=O)n2C,"inconclusive: 5.17 µM [inhibitor, single point]",–
N#Cc1ccc(C(=O)CSc2n[nH]c(=O)n2-c2cccnc2)cc1,"inconclusive: 3.98 µM [activator, partial curve, poor fit]",–
CC(=O)N/N=C/c1cc([N+](=O)[O-])ccc1OCCOc1ccccc1,–,inactive: -14.4%
Cc1nn(-c2ccccc2)c(-n2cccc2)c1C(=O)NCc1ccccc1Cl,"inconclusive: 10 µM [inhibitor, partial curve, poor fit]",–
COc1ccccc1N=Cc1c(C)[nH]n(-c2ccc(C)cc2C)c1=O,–,inactive: -7.64% [at 46.1 µM]
CC(=O)c1ccc(OCCCC(=O)Nc2ccc(C)c(S(=O)(=O)N3CCOCC3)c2)cc1,"inconclusive: 12.6 µM [inhibitor, partial curve, poor fit]",–
Brc1ccccc1CN1CCC(N2CCCCC2)CC1,–,inactive: -23.4%

# A different layout for 2 compounds above.
Compound	Potency	activity change, negative = inhibition
Cc1cccc(OCC(=O)Nc2ccccc2N2CCCCC2)c1C	inconclusive: 15.8 µM [inhibitor, single point]	–
CC(C)(C)NCCC(O)c1cc(C(F)(F)F)nc2c(C(F)(F)F)cccc12 (stereo not given)	inconclusive: 17.8 µM [inhibitor, single point]	–

# Remaining list, next part

Compound,Potency,"activity change, negative = inhibition"
O=C(Nc1ccc(NC(=O)c2cccs2)cc1)c1ccco1,–,inactive: -8.95%
Cc1cc(/C=N\NC(=O)CC(=O)NC2CCCCC2)c(C)n1-c1ccc(Cl)c(Cl)c1,"inconclusive: 8.2 µM [inhibitor, partial curve, poor fit]",–
Cc1nn(C2CCS(=O)(=O)C2)c(Cl)c1/C=C/C(=O)OCC(=O)Nc1ccc2c(c1)OCO2 (stereo not given),"inconclusive: 35.5 µM [inhibitor, single point]",–
CCOC(=O)CC(NC(=O)Cn1nnc(-c2ccc(C(F)(F)F)cc2)n1)c1ccccc1Cl (stereo not given),"inconclusive: 5.62 µM [inhibitor, single point]",–
CC(C)COC(=O)c1cc(=O)[nH]c2ccccc12,"inconclusive: 1.41 µM [activator, partial curve]",–
O=c1c(-c2ccc3c(c2)OCCO3)coc2cc(O)cc(O)c12,–,inactive: -24.5%
O=C(COC(=O)Cc1c(Cl)cccc1Cl)Nc1ccc2[nH]c(=O)[nH]c2c1,"inconclusive: 17.8 µM [activator, single point]",–
COc1ccc2c(CCNC(=O)/C=C/c3ccc(OC)c(OC)c3)c[nH]c2c1,"inconclusive: 12.6 µM [inhibitor, partial curve]",–
Cc1cccc(N(C(=O)c2csnn2)C(C(=O)NCc2ccccc2)c2ccc(C)o2)c1 (stereo not given),"inconclusive: 35.5 µM [inhibitor, partial curve, poor fit]",–
C=Cn1nc(C)c2ccccc2c1=O,"inconclusive: 35.5 µM [activator, single point]",–
Cc1ccc(-c2nn3cnnc3c3ccccc23)cc1,–,inactive: 6.31% [at 46.1 µM]
CC(C)n1cc(CN2CCC(n3nccc3NC(=O)Cc3ccccc3)CC2)cn1,"inconclusive: 10 µM [activator, single point]",–
COc1ccccc1N1CCN(C(=O)Cc2c(C(=O)O)[nH]c3ccc(Cl)cc23)CC1,–,inactive: 3.39%
C=CCSc1nc(N)c(C#N)c(-c2ccc(C)cc2)c1C#N,–,inactive: -9.82% [at 46.1 µM]
COc1ccc([N+](=O)[O-])cc1N(CC(=O)NCCC1=CCCCC1)S(C)(=O)=O,–,inactive: -22.8%
CCCCOC(=O)Nc1cccc(C(=O)OCC)c1,"inconclusive: 0.112 µM [activator, full curve, poor fit]",–
Cc1ccc(C)c(NC(=O)CCCN2C(=O)COc3ccc(C)cc32)c1,–,inactive: -4.77% [at 46.1 µM]
COc1cc(OC)c(OC)cc1/C=N/NC(=O)c1ccc2nc[nH]c2c1,"inconclusive: 7.08 µM [activator, partial curve, poor fit]",–
CC(=O)Nc1ccc(N/C=C2/CCCC2=O)cc1,"inconclusive: 17.8 µM [activator, single point]",–
CCN(CC)S(=O)(=O)c1ccc2c(c1)c(=O)c(C(=O)N(C)Cc1ccccc1)cn2C,–,inactive: 5.58% [at 46.1 µM]
O=C(CN1CCN(Cc2ccc3c(c2)OCO3)CC1)Nc1cc(S(=O)(=O)N2CCCC2)ccc1Cl,"inconclusive: 35.5 µM [inhibitor, single point]",–
O=C(NCCc1ccccc1)c1ccc2c(c1)N(Cc1ccccc1)C(=O)c1ccccc1S2=O (stereo not given),"inconclusive: 2.24 µM [inhibitor, partial curve, poor fit]",–

# Fetched one by one from the list above (three):
Compound,Potency,"activity change, negative = inhibition"
O=C(NCCc1ccccc1)c1ccc2c(c1)N(Cc1ccccc1)C(=O)c1ccccc1S2=O (stereo not given),"inconclusive: 2.24 µM [inhibitor, partial curve, poor fit]",–
CC(C)n1cc(CN2CCC(n3nccc3NC(=O)Cc3ccccc3)CC2)cn1,"inconclusive: 10 µM [activator, single point]",–
Cc1ccc(C)c(NC(=O)CCCN2C(=O)COc3ccc(C)cc32)c1,–,inactive: -4.77% [at 46.1 µM]
